Results are given in words; binding and its absence hold for the method and conditions named. In cells and extracts the contact can be indirect. Some entries that bind do so weakly or less than the wild type.
T1: SMAD Family Member 4 (human (endogenous in HCT116 and LoVo)), Q13485
T1 chain: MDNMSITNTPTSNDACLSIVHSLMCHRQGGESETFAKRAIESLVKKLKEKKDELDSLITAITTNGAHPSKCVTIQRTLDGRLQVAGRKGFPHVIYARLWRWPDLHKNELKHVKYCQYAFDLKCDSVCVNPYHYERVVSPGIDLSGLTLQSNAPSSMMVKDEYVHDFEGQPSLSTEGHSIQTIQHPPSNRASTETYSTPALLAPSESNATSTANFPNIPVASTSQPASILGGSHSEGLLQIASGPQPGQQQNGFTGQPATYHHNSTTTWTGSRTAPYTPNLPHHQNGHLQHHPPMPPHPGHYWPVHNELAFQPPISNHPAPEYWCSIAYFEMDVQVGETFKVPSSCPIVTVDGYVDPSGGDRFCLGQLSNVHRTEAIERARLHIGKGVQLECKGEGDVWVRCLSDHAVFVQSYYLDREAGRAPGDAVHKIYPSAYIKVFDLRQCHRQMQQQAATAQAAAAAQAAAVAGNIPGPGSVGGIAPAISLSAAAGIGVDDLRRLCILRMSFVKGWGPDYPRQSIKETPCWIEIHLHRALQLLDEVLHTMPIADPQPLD

B1: SMAD Family Member 2, Q15796 1-467 (protein)
chain: MSSILPFTPPVVKRLLGWKKSAGGSGGAGGGEQNGQEEKWCEKAVKSLVKKLKKTGRLDELEKAITTQNCNTKCVTIPSTCSEIWGLSTPNTIDQWDTTGLYSFSEQTRSLDGRLQVSHRKGLPHVIYCRLWRWPDLHSHHELKAIENCEYAFNLKKDEVCVNPYHYQRVETPVLPPVLVPRHTEILTELPPLDDYTHSIPENTNFPAGIEPQSNYIPETPPPGYISEDGETSDQQLNQSMDTGSPAELSPTTLSPVNHSLDLQPVTYSEPAFWCSIAYYELNQRVGETFHASQPSLTVDGFTDPSNSERFCLGLLSNVNRNATVEMTRRHIGRGVRLYYIGGEVFAECLSDSAIFVQSPNCNQRYGWHPATVCKIPPGCNLKIFNNQEFAALLAQSVNQGFEAVYQLTRMCTIRMSFVKGWGAEYRRQTVTSTPCWIELHLNGPLQWLDKVLTQMGSPSVRCSSMS
B2: SMAD Family Member 4, Q13485 1-552 (protein)
chain: MDNMSITNTPTSNDACLSIVHSLMCHRQGGESETFAKRAIESLVKKLKEKKDELDSLITAITTNGAHPSKCVTIQRTLDGRLQVAGRKGFPHVIYARLWRWPDLHKNELKHVKYCQYAFDLKCDSVCVNPYHYERVVSPGIDLSGLTLQSNAPSSMMVKDEYVHDFEGQPSLSTEGHSIQTIQHPPSNRASTETYSTPALLAPSESNATSTANFPNIPVASTSQPASILGGSHSEGLLQIASGPQPGQQQNGFTGQPATYHHNSTTTWTGSRTAPYTPNLPHHQNGHLQHHPPMPPHPGHYWPVHNELAFQPPISNHPAPEYWCSIAYFEMDVQVGETFKVPSSCPIVTVDGYVDPSGGDRFCLGQLSNVHRTEAIERARLHIGKGVQLECKGEGDVWVRCLSDHAVFVQSYYLDREAGRAPGDAVHKIYPSAYIKVFDLRQCHRQMQQQAATAQAAAAAQAAAVAGNIPGPGSVGGIAPAISLSAAAGIGVDDLRRLCILRMSFVKGWGPDYPRQSIKETPCWIEIHLHRALQLLDEVLHTMPIADPQPLD

Tests used:
[1] = biological target: T1, SMAD Family Member 4 (human (endogenous …)); experiment: co-IP; co-immunoprecipitation of SMAD2 and SMAD4, both directions, in HCT116 cells transfected with MIR22HG siRNA or control and in LoVo cells infected with lentivirus expressing MIR22HG or control; details: remark: other sources report otherwise
[2] = biological target: SMAD Family Member 2 (human (endogenous in HCT116 and LoVo)), Q15796; experiment: as above; details: remark: other sources report otherwise

Binder	binding [1]	binding [2]
B1	binds	–
B2	–	binds

Reference: paper PMC7055097
